# From the supplement of paper PMC3334620
# Whole data set: some 33,000 sequences, median “E-score (-0.5 to 0.5)” near -0.0034, cut for the highest 2% near 0.25. The list shows a part of the results.
# Biological target: T1, Yap3 (UniProt P38749)
# T1 sequence: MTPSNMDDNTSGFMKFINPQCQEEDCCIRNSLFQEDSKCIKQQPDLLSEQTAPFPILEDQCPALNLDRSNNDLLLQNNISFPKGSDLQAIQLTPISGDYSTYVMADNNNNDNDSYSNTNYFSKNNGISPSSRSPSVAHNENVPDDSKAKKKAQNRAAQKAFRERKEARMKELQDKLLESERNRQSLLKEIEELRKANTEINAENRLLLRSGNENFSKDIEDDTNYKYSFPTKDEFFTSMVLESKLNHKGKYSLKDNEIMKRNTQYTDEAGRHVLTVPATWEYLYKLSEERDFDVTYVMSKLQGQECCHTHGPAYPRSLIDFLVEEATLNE
# Experiment: PBM E-score (8-mer binding enrichment) (E-score (-0.5 to 0.5)); higher = stronger / more preferred TF binding
# Conditions: protein concentration: 100 nM; construct: GST-full length
# Procedure, shortened: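 Yeast transcription factors carrying a GST tag, as full-length proteins or DNA-binding domains, were produced by PURExpress in vitro transcription/translation. About 100-200 nM protein was applied to universal all-10-mer Agilent arrays, double-stranded by primer extension on fresh or once-stripped slides. Bound protein was detected with fluorescent anti-GST, and scans were normalised with masliner. The Universal PBM Analysis Suite gave each ungapped eight-base word, pooled with its reverse complement, an E-score, a modified Wilcoxon-Mann-Whitney statistic.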
row,Sequence,PBM E-score
1,CAAGGTAC,-0.113
2,CATGTCTC,0.0762
3,GGTGGCAA,-0.114
4,AGAGTTGG,-0.0231
5,CGATAAGA,0.0476
6,CAACGTAA,0.124
7,ATAATTGC,0.127
8,CGTCTGAG,-0.0194
9,AAGAAGTG,0.0425
10,ATTACAGA,0.11
11,ATACGTAC,0.0322
12,CGTTCATC,-0.0385
13,GAGCCCAC,-0.212
14,CCTGAACA,0.00555
15,ACGGTGGA,-0.139
16,AGTGAAAT,0.0637
17,CCTAAGTC,-0.166
18,ACTCGACT,-0.0208
19,GACTTCTA,-0.145
20,AGGCAGAC,-0.205
21,GGGCGTAA,-0.0188
22,CCTCTAAG,-0.133
23,CTGGCCTC,-0.139
24,ACCATCAG,-0.0749
25,CATTGGAA,0.0862

# Some of the entries so far, with bars between the fields:
row | Sequence | PBM E-score
24 | ACCATCAG | -0.0749
25 | CATTGGAA | 0.0862

# Next part:

row,Sequence,PBM E-score
1,AGCTTATA,-5e-05
2,ACTTCACC,0.0212
3,CCCTGAGC,-0.176
4,ACTATAGG,-0.116
5,CGGGGGAC,-0.316
6,AATCTCCA,-0.0281
7,CAAAGTAG,-0.0464
8,TAGTGTAA,0.0898
9,ATCAAGTG,-0.00308
10,TATGCCCA,-0.0906
11,AAATGCAC,0.137
12,TCCATGGA,0.142
13,GAGATAGA,-0.0146
14,GGCCTCTA,-0.0631
15,CCATATTA,0.24
16,AAGTGTAC,0.00608
17,GGTTGAAA,0.164
18,CGCAAACC,-0.0641
19,GTGATTGA,0.176
20,AGGAGTTC,-0.0378
21,AACTTCAG,0.0633
22,AGGCATGC,0.0328
23,CGCGAGAC,0.0103
24,CCCATGTA,-0.027
25,AAGGAAGA,0.0213

row,Sequence,PBM E-score
1,ACCTGCTG,0.0821
2,AAACCCGA,0.261
3,AGCGTCGA,0.124
4,CAAACAGC,0.0568
5,GGTTGGAC,-0.142
6,CGACGGTC,-0.183
7,AAGTGCTA,0.0165
8,ACCCCGAT,-0.162
9,AGCTTTCA,-0.0216
10,AATGGCCA,-0.054
11,GCTGCATA,0.0463
12,CTCATCAC,0.0219
13,GATCATGA,0.053
14,CAAACAAA,0.0409
15,AAGGGAGA,-0.219
16,TGGCTACA,0.0986
17,CACCTTGC,-0.0241
18,AAGGGCCA,-0.0432
19,CGCGCAAA,0.224
20,ACTCCTAA,0.0721
21,CTGGGTAA,0.107
22,ACTGCGTA,-0.206
23,ATAACATA,0.244
24,CGCCCGAG,-0.0413
25,TCCACTAA,0.0479

# Part of the list above, as tab-separated lines:
row	Sequence	PBM E-score
24	CGCCCGAG	-0.0413
25	TCCACTAA	0.0479

# Remaining list, next part

row,Sequence,PBM E-score
1,ATCGGGTG,0.125
2,CTGCCCCA,-0.041
3,ATACACGC,0.0444
4,AACACAAT,0.144
5,GTCCAGTA,-0.00318
6,ATTGTACG,0.0532
7,GAAACTAA,0.00343
8,GCTATGAA,0.163
9,ACGCTTTC,-0.171
10,CTGGCATC,-0.233
11,AGGGCCTA,-0.116
12,AATGTGCT,0.0764
13,TCCGGTCA,0.00023
14,AAGGTATC,-0.00987
15,CTGGCGTA,-0.272
16,CTATGGTC,-0.0584
17,AATCCGCA,0.174
18,CCAAGCCA,-0.0879
19,TCGTACAA,0.195
20,AAGAAAAG,0.125
21,CACTACTG,0.0352
22,AATAACAA,0.174
23,GAAGGCCA,-0.209
24,CAACGCGG,-0.0643
25,ACAGCCGC,-0.102

row,Sequence,PBM E-score
1,ACCATTCA,0.0103
2,ATCTTATA,0.237
3,CCCAGATA,-0.0909
4,ATTGACCG,0.122
5,ACAAGCCG,-0.016
6,GAACACGA,0.0502
7,AAGATAGT,0.2
8,GGTTCAAC,-0.159
9,GGTGCGAA,0.00736
10,TCGACACA,0.0129
11,ATAGAGTA,0.16
12,CACTACCG,-0.183
13,CCGGCTGA,-0.151
14,GGGGCGTA,-0.194
15,CCAGCTCA,-0.0366
16,ACTTTGTC,-0.0117
17,TAAACACA,0.125
18,ATGTCAAC,0.0562
19,AGGATCCG,-0.176
20,ACAAAGCC,0.0466
21,AGGTTCGA,0.144
22,AATGATTG,0.143
23,AGCAGAAT,0.152
24,CGGTTTAG,0.0356
25,GGGTGACA,-0.174

row,Sequence,PBM E-score
1,AGTCGGAA,0.114
2,TCCAGCAA,0.0417
3,GTGGCGCA,-0.112
4,CTACGATA,0.206
5,AGGTTATC,-0.0544
6,CCGTCCAC,-0.00544
7,TCCTGAAA,-0.00985
8,AATGAAAA,0.246
9,AATGGTGG,-0.0413
10,ACTGTCGG,-0.125
11,AGACTGTA,0.0447
12,ATCACGTC,0.16
13,AGATCGGG,-0.195
14,GCGTCGGA,-0.0986
15,CCTATTCC,0.0141
16,ATAAAAGA,0.221
17,GCTCTAAA,0.0373
18,ATATATGC,0.224
19,GAATCAGA,0.129
20,AGATAGAC,0.0205
21,CTGCTTGA,-0.183
22,ACGCTTGG,-0.0422
23,CAAGATTC,-0.113
24,ACAGTATC,0.0363
25,AGCTAACT,0.00051

row,Sequence,PBM E-score
1,ATGAATAA,0.195
2,AGGGAACT,-0.142
3,GCTATGGA,-0.0121
4,GACGGACC,-0.103
5,ATCTGGGA,-0.0628
6,CAAGGGCG,-0.176
7,CTCCTTCC,-0.171
8,ACGCAGAT,-0.0598
9,CGCGCATC,-0.118
10,AATAACGG,0.253
11,GACGATGC,-0.13
12,CCACCCAA,-0.0309
13,AGCTACGG,0.00612
14,TCGCGAGA,0.00323
15,CGATGGTA,-0.0126
16,CAAAGGAC,-0.142
17,ATTTTTAA,0.295
18,ACGCGCCA,-0.183
19,AGTCAAGC,-0.19
20,GCAACACC,0.0438
21,CGAAACCG,0.0574
22,CAACTATC,0.0393
